Cleaved PARP in drug-treated melanoma cells

From a melanoma drug combination screen (doi:10.1371/journal.pone.0140310); values rounded.

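Human melanoma cells were exposed to two drugs together for 72 h in 1,536-well plates and read by automated microscopy after fixing and staining. Each value is the cleaved-PARP-positive fraction of nuclei relative to DMSO-treated wells, in %, so that 100 equals the control and higher values mean more apoptosis. Every drug was used at one fixed concentration, the higher of two screened. No replicate spread is given; individual values may be noisy. Basal and induced levels differ widely between cell lines.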
Only some of the drugs and lines screened are listed, without regard to their results.

Drugs:
fingolimod: CCCCCCCCc1ccc(CCC(N)(CO)CO)cc1 at 10 µM
pazopanib: Cc1ccc(Nc2nccc(N(C)c3ccc4c(C)n(C)nc4c3)n2)cc1S(N)(=O)=O at 2 µM
GSK650394: O=C(O)c1ccc(-c2c[nH]c3ncc(-c4ccccc4)cc23)cc1C1CCCC1 at 0.8 µM
darinaparsin: C[As](C)SC[C@H](NC(=O)CC[C@H](N)C(=O)O)C(=O)NCC(=O)O at 2 µM
SNS-314: O=C(Nc1cccc(Cl)c1)Nc1ncc(CCNc2ncnc3ccsc23)s1 at 0.004 µM
FK866: O=C(/C=C/c1cccnc1)NCCCCC1CCN(C(=O)c2ccccc2)CC1 at 0.05 µM
AS-252424: O=C1NC(=O)/C(=C/c2ccc(-c3ccc(F)cc3O)o2)S1 at 5 µM
lestaurtinib: C[C@]12O[C@H](C[C@]1(O)CO)n1c3ccccc3c3c4c(c5c6ccccc6n2c5c31)CNC4=O at 0.02 µM
tanespimycin: C=CCNC1=C2C[C@@H](C)C[C@H](OC)[C@H](O)[C@@H](C)/C=C(\C)[C@H](OC(N)=O)[C@@H](OC)/C=C\C=C(/C)C(=O)NC(=CC1=O)C2=O at 0.01 µM

With pazopanib + lestaurtinib the screen read WM3526: 178; COLO 792: 129; IST-MEL1: 34.5; SK-MEL-5: 348; SK-MEL-30: 53.0.
With SNS-314 + AS-252424 the screen read WM3526: 148; COLO 792: 171; IST-MEL1: 54.0; SK-MEL-5: 162; SK-MEL-30: 78.9.
With lestaurtinib + tanespimycin the screen read WM3526: 215; COLO 792: 528; IST-MEL1: 157; SK-MEL-5: 504; SK-MEL-30: 56.5.
With GSK650394 + FK866 the screen read WM3526: 126; COLO 792: 624; IST-MEL1: 81.0; SK-MEL-5: 20.3; SK-MEL-30: 107.
With pazopanib + FK866 the screen read WM3526: 121; COLO 792: 780; IST-MEL1: 117; SK-MEL-5: 117; SK-MEL-30: 178.
With FK866 + fingolimod the screen read WM3526: 4200; COLO 792: 7330; IST-MEL1: 1220; SK-MEL-5: 836; SK-MEL-30: 2160.
With tanespimycin + darinaparsin the screen read WM3526: 551; COLO 792: 273; IST-MEL1: 185; SK-MEL-5: 160; SK-MEL-30: 101.
With GSK650394 + darinaparsin the screen read WM3526: 388; COLO 792: 125; IST-MEL1: 209; SK-MEL-5: 104; SK-MEL-30: 96.1.
With darinaparsin + pazopanib the screen read WM3526: 201; COLO 792: 158; IST-MEL1: 116; SK-MEL-5: 307; SK-MEL-30: 109.
With GSK650394 + tanespimycin the screen read WM3526: 271; COLO 792: 250; IST-MEL1: 408; SK-MEL-5: 158; SK-MEL-30: 85.9.
With AS-252424 + pazopanib the screen read WM3526: 57.8; COLO 792: 47.4; IST-MEL1: 130; SK-MEL-5: 195; SK-MEL-30: 49.2.
With tanespimycin + FK866 the screen read WM3526: 246; COLO 792: 621; IST-MEL1: 131; SK-MEL-5: 346; SK-MEL-30: 155.
With GSK650394 + pazopanib the screen read WM3526: 59.6; COLO 792: 42.5; IST-MEL1: 95.2; SK-MEL-5: 70.1; SK-MEL-30: 57.7.
With pazopanib + SNS-314 the screen read WM3526: 77.1; COLO 792: 280; IST-MEL1: 202; SK-MEL-5: 74.6; SK-MEL-30: 113.
With FK866 + AS-252424 the screen read WM3526: 137; COLO 792: 670; IST-MEL1: 86.7; SK-MEL-5: 114; SK-MEL-30: 94.8.
With fingolimod + GSK650394 the screen read WM3526: 5150; COLO 792: 12500; IST-MEL1: 1690; SK-MEL-5: 107; SK-MEL-30: 2760.
With GSK650394 + lestaurtinib the screen read WM3526: 230; COLO 792: 312; IST-MEL1: 63.4; SK-MEL-5: 185; SK-MEL-30: 47.3.
With SNS-314 + FK866 the screen read WM3526: 134; COLO 792: 557; IST-MEL1: 98.3; SK-MEL-5: 92.3; SK-MEL-30: 85.4.
With SNS-314 + tanespimycin the screen read WM3526: 107; COLO 792: 194; IST-MEL1: 101; SK-MEL-5: 138; SK-MEL-30: 67.9.
With darinaparsin + lestaurtinib the screen read WM3526: 167; COLO 792: 107; IST-MEL1: 66.4; SK-MEL-5: 241; SK-MEL-30: 83.0.
With GSK650394 + AS-252424 the screen read WM3526: 104; COLO 792: 118; IST-MEL1: 126; SK-MEL-5: 411; SK-MEL-30: 67.8.
With AS-252424 + fingolimod the screen read WM3526: 859; COLO 792: 6490; IST-MEL1: 1220; SK-MEL-5: 76.7; SK-MEL-30: 692.
With lestaurtinib + fingolimod the screen read WM3526: 2910; COLO 792: 9010; IST-MEL1: 415; SK-MEL-5: 347; SK-MEL-30: 1560.
With darinaparsin + SNS-314 the screen read WM3526: 275; COLO 792: 296; IST-MEL1: 102; SK-MEL-5: 251; SK-MEL-30: 118.
With GSK650394 + SNS-314 the screen read WM3526: 159; COLO 792: 219; IST-MEL1: 215; SK-MEL-5: 194; SK-MEL-30: 129.
With AS-252424 + tanespimycin the screen read WM3526: 92.3; COLO 792: 154; IST-MEL1: 108; SK-MEL-5: 146; SK-MEL-30: 70.3.
With AS-252424 + lestaurtinib the screen read WM3526: 146; COLO 792: 86.4; IST-MEL1: 66.6; SK-MEL-5: 128; SK-MEL-30: 90.3.
With tanespimycin + pazopanib the screen read WM3526: 178; COLO 792: 201; IST-MEL1: 150; SK-MEL-5: 212; SK-MEL-30: 60.1.
With fingolimod + darinaparsin the screen read WM3526: 359; COLO 792: 11900; IST-MEL1: 532; SK-MEL-5: 2390; SK-MEL-30: 2320.
With SNS-314 + fingolimod the screen read WM3526: 2920; COLO 792: 7750; IST-MEL1: 640; SK-MEL-5: 160; SK-MEL-30: 1330.
With pazopanib + fingolimod the screen read WM3526: 618; COLO 792: 5610; IST-MEL1: 1530; SK-MEL-5: 81.4; SK-MEL-30: 2140.
With tanespimycin + fingolimod the screen read WM3526: 534; COLO 792: 14400; IST-MEL1: 735; SK-MEL-5: 355; SK-MEL-30: 2700.
With FK866 + lestaurtinib the screen read WM3526: 284; COLO 792: 428; IST-MEL1: 118; SK-MEL-5: 162; SK-MEL-30: 215.
With lestaurtinib + SNS-314 the screen read WM3526: 83.9; COLO 792: 252; IST-MEL1: 112; SK-MEL-5: 211; SK-MEL-30: 63.5.
With AS-252424 + darinaparsin the screen read WM3526: 117; COLO 792: 123; IST-MEL1: 80.5; SK-MEL-5: 80.6; SK-MEL-30: 102.
With FK866 + darinaparsin the screen read WM3526: 277; COLO 792: 603; IST-MEL1: 238; SK-MEL-5: 249; SK-MEL-30: 43.8.

The first 5 entries again:

Combination	WM3526	COLO 792	IST-MEL1	SK-MEL-5	SK-MEL-30
pazopanib + lestaurtinib	178	129	34.5	348	53.0
SNS-314 + AS-252424	148	171	54.0	162	78.9
lestaurtinib + tanespimycin	215	528	157	504	56.5
GSK650394 + FK866	126	624	81.0	20.3	107
pazopanib + FK866	121	780	117	117	178